No constants are given. Whether binding was seen depends on the method and setting. Binding seen in cells or lysates may run through a third protein. Some binding calls cover weakened binding; strength is not graded here. For part of these data: Sequences can lack the tags named with a protein.

Chains of the proteins cited; added tags and fusions are not shown.
UniProt Q60989: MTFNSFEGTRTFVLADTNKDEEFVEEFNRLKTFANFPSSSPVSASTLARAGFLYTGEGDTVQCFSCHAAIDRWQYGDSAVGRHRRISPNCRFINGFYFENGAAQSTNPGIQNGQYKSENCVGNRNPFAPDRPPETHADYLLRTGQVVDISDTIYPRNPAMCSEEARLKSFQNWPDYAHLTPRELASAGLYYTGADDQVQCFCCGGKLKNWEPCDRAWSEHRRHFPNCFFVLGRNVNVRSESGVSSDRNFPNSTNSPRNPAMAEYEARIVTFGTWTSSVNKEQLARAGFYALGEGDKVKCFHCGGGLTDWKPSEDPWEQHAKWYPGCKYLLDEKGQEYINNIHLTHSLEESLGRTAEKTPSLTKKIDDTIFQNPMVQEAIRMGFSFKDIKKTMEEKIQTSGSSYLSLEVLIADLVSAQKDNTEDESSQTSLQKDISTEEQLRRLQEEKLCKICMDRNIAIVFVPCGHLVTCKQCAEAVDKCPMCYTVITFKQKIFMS

Data on three molecules can be found in paper PMC3138748, “A Small Peptide Modeled after the NRAGE Repeat Domain Inhibits XIAP-TAB1-TAK1 Signaling for NF-κB Activation and Apoptosis in P19 Cells” (PLoS ONE, 2011).

Assay [1] deals with T1, endogenous NRAGE (neurotrophin receptor-mediated MAGE homolog) of P19 cells (mouse (endogenous in P19)) (UniProt Q9QYH6).
T1 sequence: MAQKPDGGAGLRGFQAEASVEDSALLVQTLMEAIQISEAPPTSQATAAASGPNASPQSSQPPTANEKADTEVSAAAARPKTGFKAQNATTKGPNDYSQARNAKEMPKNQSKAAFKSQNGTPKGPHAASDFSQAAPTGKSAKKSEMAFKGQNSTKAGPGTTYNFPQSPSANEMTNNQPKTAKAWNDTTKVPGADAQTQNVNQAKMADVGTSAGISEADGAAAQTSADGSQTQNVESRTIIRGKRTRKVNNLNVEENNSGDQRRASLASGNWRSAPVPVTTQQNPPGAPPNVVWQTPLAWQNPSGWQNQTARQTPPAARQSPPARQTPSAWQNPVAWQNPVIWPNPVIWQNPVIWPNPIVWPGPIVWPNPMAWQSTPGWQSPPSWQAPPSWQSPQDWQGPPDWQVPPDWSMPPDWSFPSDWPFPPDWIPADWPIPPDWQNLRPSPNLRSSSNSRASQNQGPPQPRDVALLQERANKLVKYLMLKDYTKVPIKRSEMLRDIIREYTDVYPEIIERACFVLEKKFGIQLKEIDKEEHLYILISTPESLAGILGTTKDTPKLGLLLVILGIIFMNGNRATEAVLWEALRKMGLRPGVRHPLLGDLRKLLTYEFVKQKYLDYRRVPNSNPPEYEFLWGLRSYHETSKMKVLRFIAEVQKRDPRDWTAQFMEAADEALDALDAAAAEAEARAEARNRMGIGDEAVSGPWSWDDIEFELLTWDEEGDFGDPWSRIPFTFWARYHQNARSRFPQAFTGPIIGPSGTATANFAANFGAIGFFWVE
Briefly: co-IP; endogenous NRAGE immunoprecipitated (anti-NRAGE, Santa Cruz sc-14398) from NP-40 lysates of P19 cells, blotted for XIAP, TAK1 and NRAGE; cells untreated or treated with 10 ng/ml BMP-4 (1 h), 10 nM NRAGE peptide and 6 µM EndoPorter, alone or combined.

Another assay addresses T2, EYFP-XIAP (UniProt Q60989 1-496).
T2 construct: also called Y-X; source: 293T, co-transfected, in fixed cells; not shown: EYFP, N-terminal, kept
Briefly: FRET or BRET; data not shown: donor dequenching CFP:YFP FRET of overexpressed fluorescently tagged full-length NRAGE and XIAP in cells cultured with the NRAGE peptide at 10 nM, 100 nM or 1 µM. (In general: Bioluminescence resonance energy transfer reports proximity on the nanometre scale.)

Consider “endogenous XIAP (X-linked inhibitor of apoptosis protein) of P19 cells (from UniProt Q60989 1-496)”, for which the binding result in assay [1] is recorded as “binds”.

B1: CFP-NRAGE (full-length NRAGE) (protein, UniProt Q9ES73 1-775)
chain: MAQKPDGGAGLRGFQAEASVEDSALLVQTLMEAIQISEAPPTSQATAAASGPNASPQSSQPPTANEKADTEVSAAAARPKTGFKAQNTTTKGPNDYSQARNAKEMPKNQPKVAFKSQNATSKGPHAASDFSHAASTGKSAAKKSEMAFKGQNTTTKAGPSATYNFTQSPSANEMTNNQPKTAKAWNDTTKIPGADAQTQNVNQAKMADVGTSAGISETDGAAAQTSADGSQAQNVESRTIIRGKRTRKINNLNVEENSNGDQRRASLASGNWRSAPVPVTTQNPPGAPPNVLWQTPLAWQNPSGWQNQTARQTPPARQSPPARQTPSAWQNPVAWQNPVIWPNPVIWQNPVIWPNPIVWPGPIVWPNPMAWQSTPGWQSPPSWQAPPSWQSPQDWQGPPDWQLPPDWSMPPDWSFPSDWPFPPDWIPADWPIPPDWQNLRPSPNLRSSPNSRASQNQGPPQPRDVALLQERANKLVKYLMLKDYTKVPIKRSEMLRDIIREYTDVYPEIIERACFVLEKKFGIQLKEIDKEEHLYILISTPESLAGILGTTKDTPKLGLLLVILGIIFMNGNRATEAVLWEALRKMGLRPGVRHPLLGDLRKLLTYEFVKQKYLDYRRVPNSNPPEYEFLWGLRSYHETSKMKVLRFIAEVQKRDPRDWTAQFMEAADEALDALDAAAAEAEARAEARNRMGIGDEAVSGPWSWDDIEFELLTWDEEGDFGDPWSRIPFTFWARYHQNARSRFPQAFTGPIIGPSGTATANFAANFGAIGFFWVE
As to B1, the binding result in the assay with EYFP-XIAP is recorded as “binds”.

B2: endogenous TAK1 (TGF-β activated kinase 1) of P19 cells (protein, UniProt Q62073 1-579)
chain: MSTASAASSSSSSSASEMIEAPSQVLNFEEIDYKEIEVEEVVGRGAFGVVCKAKWRAKDVAIKQIESESERKAFIVELRQLSRVNHPNIVKLYGACLNPVCLVMEYAEGGSLYNVLHGAEPLPYYTAAHAMSWCLQCSQGVAYLHSMQPKALIHRDLKPPNLLLVAGGTVLKICDFGTACDIQTHMTNNKGSAAWMAPEVFEGSNYSEKCDVFSWGIILWEVITRRKPFDEIGGPAFRIMWAVHNGTRPPLIKNLPKPIESLMTRCWSKDPSQRPSMEEIVKIMTHLMRYFPGADEPLQYPCQYSDEGQSNSATSTGSFMDIASTNTSNKSDTNMEQVPATNDTIKRLESKLLKNQAKQQSESGRLSLGASRGSSVESLPPTSEGKRMSADMSEIEARIVATAGNGQPRRRSIQDLTVTGTEPGQVSSRSSSPSVRMITTSGPTSEKPARSHPWTPDDSTDTNGSDNSIPMAYLTLDHQLQPLAPCPNSKESMAVFEQHCKMAQEYMKVQTEIALLLQRKQELVAELDQDEKDQQNTSRLVQEHKKLLDENKSLSTYYQQCKKQLEVIRSQQQKRQGTS
Turning to B2, the binding entry in assay [1] is recorded as “binds”.
